According to PubChem BioAssay AID2685 (National Center for Advancing Translational Sciences (NCATS), 2010):
The list shows a part of the results. Shown are side measurements of this screen, not its main read-out; they come without a call. Most of these compounds were active or inconclusive in the main read-out, so they are no random draw. The note in brackets gives the kind of curve behind each potency; many fits are weak.

Assay: qHTS Assay for Lipid Storage Modulators in Drosophila S3 Cells;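 as to cell number change: cells counted by Cell Tracker Red CMTPX staining in the red channel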
Details: BODIPY lipid droplet fluorescence, 18-24 h; for cell number change: measured here: cell count max response, cells fed with added oleic acid
Outline: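 Drosophila S3 cells got compounds at several concentrations plus oleic acid (400 uM solution). Laser-scanning cytometry with 488 nm excitation read lipid droplets at 500-530 nm and cells at 575-640 nm. Percent activity was relative to 20 uM Triacsin C.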

[1] = measured here: lipid fluorescence (Fed channel) AC50, cells fed with added oleic acid
[2] = measured here: cell number channel AC50, cells fed with added oleic acid

SMILES | cell number change [%] | AC50 [1] | AC50 [2]
O=C(NCCc1ccccc1)C(=O)NCC1CCCO1 (configuration not stated) | -2.33 | 2.31 µM [falling, single point] | 
Cc1cc(NC(=O)CN2CCC(O)(c3cccc(F)c3)CC2)no1 | -48.7 |  | 32.6 µM [falling, single point]
O=S(=O)(c1ccc(Cl)cc1)N1CCN(C2CCCCCC2)CC1 | 18 | 0.58 µM [rising, partial curve] | 
O=C(NCCO)C(=O)NCC1OCCCN1S(=O)(=O)c1cccs1 (configuration not stated) | 16.7 |  | 6.51 µM [rising, single point]
CCC(=O)c1ccc(OCC(=O)O)cc1 | -7.72 | 3.66 µM [falling, single point] | 2.31 µM [rising, partial curve]
CC(C)(C)c1cc(NC(=O)c2ccco2)n(-c2ccccc2)n1 | 57.9 |  | 29.1 µM [rising, single point]
CCCCc1ccc(NC=C2C(=O)OC3(CCCCC3)OC2=O)cc1 |  | 16.4 µM [rising, partial curve] | 
O=C(NCCS(=O)(=O)NCc1ccc(F)cc1)c1ccccc1 | 1.94 |  | 6.51 µM [falling, single point]
CSCC[C@H](NC(=O)N1CCn2c1nc1ccccc12)C(=O)NCc1ccc(C)cc1 |  | 0.116 µM [falling, single point] | 
COC(=O)c1ccccc1NC(=S)NC(=O)c1ccccc1F | 11.9 | 29.1 µM [rising, single point] | 
Cn1c(=O)c2c(ncn2Cc2ccc(Cl)c(Cl)c2)n(C)c1=O | -23.1 | 18.4 µM [falling, single point] | 
Cc1ccc2cc(NC(=O)CC(CC(=O)O)c3ccccc3)ccc2n1 (configuration not stated) | -23.7 | 0.0651 µM [falling, full curve, poor fit] | 
CCOC(=O)CN(Cc1sccc1C)C(=O)Nc1cccc(OC)c1 | -3.77 | 29.1 µM [falling, single point] | 
FC(F)C(F)(F)C(F)(F)C(F)(F)c1cc(-c2ccccc2)n[nH]1 | -68.9 | 16.4 µM [falling, single point] | 20.6 µM [falling, partial curve, poor fit]
COC(=O)c1sccc1NC(=O)COc1ccc(Cl)cc1 | -7.72 |  | 1.46 µM [falling, full curve, poor fit]
Cc1ccccc1Oc1cc(NC(=O)CCCn2nc(C)c([N+](=O)[O-])c2C)cc([N+](=O)[O-])c1 | -66.6 | 20.6 µM [falling, single point] | 14.6 µM [falling, partial curve]
COc1ccc(OC)c(C(=O)c2coc3ccc(OC(C)=O)cc23)c1 | -35.4 | 6.51 µM [falling, partial curve] | 9.2 µM [falling, partial curve]
CCN(CC)CCn1c(=S)[nH]c2cc(C(=O)N3CC(C)CC(C)C3)ccc2c1=O (configuration not stated) | 13.7 | 29.1 µM [falling, single point] | 
Cc1ccc(C(=O)OCC(=O)Nc2nc(-c3ccccc3)cs2)cc1NC(=O)c1ccco1 | 151 | 29.1 µM [rising, single point] | 
COc1ccc2c(c1)CCc1c(C(=O)N3CCc4ccccc4C3)noc1-2 |  | 3.26 µM [falling, single point] | 

SMILES | cell number change [%] | AC50 [1] | AC50 [2]
Cc1ccc(C2CC(c3ccc(Br)cc3)=NN2C(=O)CSC2=NN3CCCC(=O)N=C3S2)cc1 (configuration not stated) | 14.9 | 0.00461 µM [rising, full curve, poor fit] | 
O=C(CSc1ccc2nnc(-c3cccnc3)n2n1)c1ccccc1 | -62.4 |  | 
O=c1c(Cl)c(N2CCOCC2)cnn1-c1nc2ccccc2[nH]1 | 14.3 |  | 
CCN1CCN(CCC(=O)Nc2ccc(Br)c(C)c2)CC1 | -8.92 | 6.51 µM [rising, single point] | 
O/N=C(/c1ccccc1)c1cc2cc(Br)cc(Br)c2o1 | -42.2 | 25.9 µM [falling, partial curve] | 14.6 µM [falling, partial curve]
Cc1ccc(S(=O)(=O)NCC(=O)NCC2CCCCC2)cc1C | 25 | 20.6 µM [rising, partial curve] | 
CCc1cccc(NC(=O)CN(C)S(=O)(=O)c2cccc3cccnc23)c1 | 30.3 |  | 
CCN(Cc1ccccc1)S(=O)(=O)c1ccc(C(=O)N2CCN(c3nc4ccccc4s3)CC2)cc1 | 26.1 | 8.2 µM [rising, partial curve, poor fit] | 
COc1cccc(NC(=O)CCc2nnc3ccc(N4CCN(c5cccc(OC)c5)CC4)nn23)c1 |  | 3.66 µM [falling, full curve] | 
CC1CC(C)CN(C(=O)CSCC(=O)Nc2nc(-c3cccs3)cs2)C1 (configuration not stated) | -35.5 | 9.2 µM [falling, partial curve] | 6.51 µM [falling, full curve, poor fit]
CC(=O)Nc1ccc(S(=O)(=O)NC2CC(=O)N(c3ccc4c(c3)OCCO4)C2)cc1 (configuration not stated) | 76.4 |  | 16.4 µM [rising, single point]
Nc1ccc(C(=O)O)c(O)c1 |  | 1.3 µM [falling, full curve, poor fit] | 13 µM [rising, partial curve, poor fit]
CCC(C)C1=CC(=Nc2c(C)n(C)n(-c3ccccc3)c2=O)C=C(C(C)CC)C1=O (configuration not stated) | 13.9 | 6.51 µM [rising, single point] | 0.116 µM [rising, full curve, poor fit]
NS(=O)(=O)c1ccc(CCNCc2cccnc2)cc1 | 32.4 |  | 
CN(CC(=O)Nc1cccc(F)c1)C(=O)c1ccccc1-n1cnnn1 | -23.7 |  | 
CNC(=O)c1cccc(NC(=O)c2ccccc2OCc2ccccc2)c1 | 20.2 | 3.26 µM [falling, full curve] | 
CC(C)NC(=O)COC(=O)c1cncc(Br)c1 | -23.7 | 0.13 µM [falling, full curve] | 0.00651 µM [falling, full curve, poor fit]
Cc1nn(-c2ccccc2)c(C)c1/C=C/C(=O)OCC(=O)N(C)C1CCS(=O)(=O)C1 (configuration not stated) | 12.3 | 0.731 µM [falling, partial curve, poor fit] | 
CCOC(=O)c1c(NC(=O)C(=O)N/N=C/c2ccc(O)c(OC)c2)sc2c1CCCCC2 | -19 | 1.3 µM [rising, full curve] | 0.116 µM [falling, full curve, poor fit]
COc1ccc(/C=N/Nc2cc(C)nc3ccc(Br)cc23)cc1 | -69.8 | 25.9 µM [falling, single point] | 18.4 µM [falling, partial curve]

Three entries out of the list, arranged by formula weight, smallest number first.
SMILES | cell number change [%] | AC50 [1] | AC50 [2]
CC(C)(C)c1cc(NC(=O)c2ccco2)n(-c2ccccc2)n1 | 57.9 |  | 29.1 µM [rising, single point]
COc1ccc(/C=N/Nc2cc(C)nc3ccc(Br)cc23)cc1 | -69.8 | 25.9 µM [falling, single point] | 18.4 µM [falling, partial curve]
COc1cccc(NC(=O)CCc2nnc3ccc(N4CCN(c5cccc(OC)c5)CC4)nn23)c1 |  | 3.66 µM [falling, full curve] | 

Next entries.

SMILES | cell number change [%] | AC50 [1] | AC50 [2]
O=C(c1cccs1)N(Cc1cc2ccccc2[nH]c1=O)c1ccccc1 | 12.7 |  | 
C/C(=N\Nc1ccc(Cl)c(C(=O)O)c1)c1cccc2ccccc12 | 4.96 |  | 
COc1ccc(-n2c(C)c(C(C)=O)c(C(C)=O)c2C)cc1 | -13.2 |  | 0.116 µM [falling, full curve]
CN(/C=C1/C(=O)CNC1=O)CCO | -25.4 | 2.59 µM [falling, full curve, poor fit] | 2.31 µM [falling, full curve, poor fit]
Cc1ccc(CNC(=O)CCc2c(C)[nH]c(=O)c(C#N)c2C)cc1 | 19.7 |  | 
OC1CCCN(Cc2c3ccccc3cc3ccccc23)C1 (configuration not stated) | -42.4 | 5.8 µM [falling, full curve] | 0.731 µM [falling, full curve]
COCCCn1c(=N)c(C(=O)NCC2CCCO2)cc2c(=O)n3ccccc3nc21 (configuration not stated) | -3.17 | 32.6 µM [rising, single point] | 
Cc1cc(O)ccc1NC(=S)NC(=O)c1cncc(Br)c1 | -25.8 |  | 
CC(=O)SC1CC(=O)N(c2ccc(C(C)(C)C)cc2)C1=O (configuration not stated) | 24 | 0.13 µM [falling, full curve, poor fit] | 
O=C1CC[C@@H](O)CCN1CC[C@H](Sc1ccccc1)c1ccccc1 | 9.58 |  | 0.651 µM [rising, partial curve]
O=C(c1ccco1)N1CCN(Cc2cc(=O)c(OCc3ccccc3F)co2)CC1 | 25 | 9.2 µM [falling, partial curve] | 4.61 µM [rising, full curve, poor fit]
COC(=O)Cn1c(=NC(=O)c2ccc(Cl)s2)sc2cc(C)ccc21 | -50 |  | 18.4 µM [falling, partial curve]
Cc1occc1C(=O)n1nnc2ccccc21 | 6 |  | 2.91 µM [rising, partial curve]
CCCCNC(=O)CS(=O)Cc1nc(-c2cccs2)oc1C (configuration not stated) | 35.9 |  | 29.1 µM [rising, single point]
CCOC(=O)c1ccc(N2C(=O)CC(N3CCN(Cc4ccccc4)CC3)C2=O)cc1 (configuration not stated) | -0.816 | 29.1 µM [falling, single point] | 
CCC(Cc1ccccc1)NC(=O)C1CC1 (configuration not stated) | -0.702 |  | 
CCN(CC)S(=O)(=O)c1ccc2oc(SCC(=O)NCc3ccccc3)nc2c1 | 98.4 |  | 18.4 µM [rising, partial curve]
COc1cccc(N2C(=O)C(c3ccccc3)=C(c3nc4ccccc4s3)C2NC(C)=O)c1 (configuration not stated) |  | 2.31 µM [rising, partial curve] | 2.06 µM [rising, partial curve]
Cc1ccc(S(=O)(=O)NCCNC(C)c2ccc(Br)cc2)cc1 (configuration not stated) | -6.48 | 6.51 µM [rising, single point] | 
